The text below walks through data of PubChem BioAssay AID2685 (National Center for Advancing Translational Sciences (NCATS), 2010).

By AC50 is commonly meant the midpoint of the concentration-response curve, whichever way the signal moves. A higher AC50 goes with weaker potency.

Some of the results follow. Further columns of the screen follow, without active or inactive calls. Compounds called inactive in the main read-out are mostly missing here. The note in brackets gives the kind of curve behind each potency; many fits are weak.

This assay is described as follows: qHTS Assay for Lipid Storage Modulators in Drosophila S3 Cells.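 As to cell number change: cells counted by Cell Tracker Red CMTPX staining in the red channel.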 The following applies: BODIPY lipid droplet fluorescence, 18-24 h; for cell number change: measured here: cell count max response, cells fed with added oleic acid. An outline of the steps: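 Drosophila S3 cells got compounds at several concentrations plus oleic acid (400 uM solution). Laser-scanning cytometry with 488 nm excitation read lipid droplets at 500-530 nm and cells at 575-640 nm. Percent activity was relative to 20 uM Triacsin C.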
(Quantitative high-throughput screening tests each substance at several concentrations.)

Setting [1] is: measured here: lipid fluorescence (Fed channel) AC50, cells fed with added oleic acid.
[2] abbreviates: measured here: cell number channel AC50, cells fed with added oleic acid.

With `COc1ccccc1/C=N/N1CCN(c2ccc(Cl)cc2)CC1`, the cell number change amounted to 16.1%.

As to `S=c1[nH]nc(-c2ccncc2)n1/N=C/c1cccc(Cl)c1`, the cell number change stood at 10.5%. Besides, the concentration at half-maximal activity (AC50) under setting [1] is 1.16 µM [rising, full curve].

Take `Cc1cc(C)n2cc(CSc3ncccc3C(=O)O)nc2n1`: the cell number change was 35.5%. Besides, under setting [2], the concentration at half-maximal activity (AC50) was 4.61 µM [rising, full curve, poor fit].

In the case of `COc1ccccc1NC(=O)C(Cc1ccc(Cl)cc1)c1nn[nH]n1` (stereo unspecified), the cell number change turned out to be 8.71%. Further, under setting [1], the concentration at half-maximal activity (AC50) was 25.9 µM [falling, partial curve].

In the case of `COc1cc(C(=O)NCC(=O)n2nc(C)cc2C)cc(OC)c1OC`, the cell number change is -16.5%. Moreover, under setting [1], the concentration at half-maximal activity (AC50) was 29.1 µM [falling, single point].

As to `S=C(N/N=C/c1ccc2ncccc2c1)Nc1cccnc1`, the cell number change stood at 20%. Besides, under setting [1], the AC50 was 0.178 µM [rising, full curve, poor fit].

In the case of `COC(=O)C(=Cc1ccccc1[N+](=O)[O-])C(=O)OC`, the cell number change is -34.9%. Further, under setting [2], the half-maximal activity concentration (AC50) is 20.6 µM [falling, partial curve]. Also, the AC50 under setting [1] is 3.66 µM [falling, single point].

As for `O=C(CN1CCCN(S(=O)(=O)c2ccc(F)cc2)CC1)Nc1cccc(F)c1`, the cell number change came out at 16.7%. The concentration at half-maximal activity (AC50) under setting [1] is 29.1 µM [falling, single point].

Turning to `CCC(=O)N1CCc2cc(S(=O)(=O)N3CCN(C(=O)c4ccco4)CC3)ccc21`, the cell number change is -32.6%. Further, the concentration at half-maximal activity (AC50) under setting [2] is 18.4 µM [falling, partial curve]. The AC50 under setting [1] is 0.731 µM [rising, full curve].

Turning to `CC(=O)N1CCN(S(=O)(=O)c2cccc(C(=O)Nc3ccc4c(c3)OCO4)c2)CC1`, the cell number change worked out at 11.5%.

Regarding `CN(C)C(CNC(=O)c1cccc(OC(F)F)c1)c1ccco1` (stereo unspecified), the cell number change amounted to 8.39%.

As to `CCc1ccc2nc(N(CCCN(C)C)C(=O)c3ccc(S(=O)(=O)N4CCc5ccccc5C4)cc3)sc2c1`, the cell number change came to 0.403%. Moreover, under setting [1], the AC50 is 18.4 µM [falling, single point].

Consider `COc1ccc(-c2[nH]ncc2CN2CCCC2c2nonc2C)c(F)c1` (stereo unspecified), for which the cell number change amounted to 6.48%.

`O=C(NC1(C(F)(F)F)OCCO1)c1ccc(F)cc1`: the cell number change was 9.24%.

On to `CCOc1ccc2nc(SCC(=O)NNC(=O)c3ccco3)c(C)cc2c1`, for which the cell number change is 8.26%.

With `O=C(Nc1cccc(Cl)c1)c1ccc(=O)[nH]n1`, the cell number change was found to be 8.63%. For the same compound, the AC50 under setting [1] is 4.11 µM [rising, partial curve, poor fit].

For `Cn1ccnc1SCC(=O)NC1CCCC1`, the cell number change was determined as 22.2%. Also, the half-maximal activity concentration (AC50) under setting [1] is 1.03 µM [falling, single point].

For the compound `N#CC(c1ccccc1)c1ccc2c(C(F)(F)F)cc(C(F)(F)F)nc2n1` (stereo unspecified), the cell number change was -2.96%. Further, the concentration at half-maximal activity (AC50) under setting [2] was 4.61 µM [falling, single point].

Consider `CCCc1nnc(NC(=O)CCC(=O)NCc2ccccc2OC)s1`, for which the cell number change came out at 24.5%.

Turning to `O=C1NC(=O)C2(CCCc3ccccc32)N1` (stereo unspecified), the cell number change was 5.38%. The half-maximal activity concentration (AC50) under setting [1] is 13 µM [rising, partial curve].

Turning to `CCCNc1nc(C)c(C(C)=O)cc1C#N`, the cell number change was determined as 35.8%. Further, the AC50 under setting [2] was 5.8 µM [rising, partial curve, poor fit].

On to `COc1ccc(-c2cc(=O)c3ccccc3[nH]2)cc1`, for which the cell number change is -20.3%. The AC50 under setting [1] is 5.17 µM [falling, full curve].

Turning to `O=C(NCc1ccccc1)C1CCCN(S(=O)(=O)c2cccs2)C1` (stereo unspecified), the cell number change was 13.6%. Moreover, the half-maximal activity concentration (AC50) under setting [1] is 2.91 µM [rising, partial curve].

`O=C(NCCc1ccccn1)c1cccc(S(=O)(=O)N2CCc3ccccc32)c1`: the cell number change was -112%. Further, under setting [2], the concentration at half-maximal activity (AC50) is 4.61 µM [falling, single point].

For `CC(CCc1ccccc1)NC(=O)CCNS(=O)(=O)c1ccccc1` (stereo unspecified), the cell number change is 8.5%.

As to `Cn1cc(Br)c(C(=O)N/N=C/c2cc3c(cc2Cl)OCO3)n1`, the cell number change is -22.9%. Besides, the half-maximal activity concentration (AC50) under setting [1] was 6.51 µM [rising, partial curve, poor fit].

On to `CCOc1ccc(CN2C(=O)c3ccccc3C2=O)cc1C(=O)Nc1nnc(SCC)s1`, for which the cell number change was found to be 42.1%. Moreover, the half-maximal activity concentration (AC50) under setting [2] was 32.6 µM [rising, single point]. Also, the half-maximal activity concentration (AC50) under setting [1] is 6.51 µM [falling, single point].

As for `Cc1cc(-c2ccc(C)c(S(=O)(=O)NCC3CCN(Cc4ccccc4F)CC3)c2)on1`, the cell number change worked out at 4.89%. In addition, the concentration at half-maximal activity (AC50) under setting [1] was 29.1 µM [rising, single point].

Regarding `C[C@H](NC(=O)C1CCN(S(=O)(=O)c2ccccc2)CC1)C(=O)NCc1ccccn1`, the cell number change is -5.6%. Besides, the AC50 under setting [1] was 29.1 µM [rising, single point].

In the case of `Cc1cc(C)c(S(=O)(=O)n2nc(C)c(Br)c2C)c(C)c1`, the cell number change was -2.3%. The AC50 under setting [1] is 32.6 µM [falling, single point].

As for `CC1=CC(C)(C)N=C(Nc2ccc(C)cc2)S1`, the cell number change amounted to 7.58%. Further, the half-maximal activity concentration (AC50) under setting [2] was 0.517 µM [rising, full curve, poor fit]. Further, under setting [1], the AC50 was 0.82 µM [rising, full curve].

For `CCOC(=O)c1ccccc1NC1c2ccccc2C(=O)N1c1cc(C)ccn1` (stereo unspecified), the cell number change is -8.12%. Under setting [1], the AC50 was 0.291 µM [rising, full curve].

For `Cc1nc2nc(SCC(=O)NCCCN3CCOCC3)nn2c(C)c1Cc1ccccc1`, the cell number change is -10.9%. The AC50 under setting [2] was 0.00461 µM [falling, full curve, poor fit].

As for `COc1ccc(NC(=O)C(c2ccc(C)cc2)N(C)C(=O)c2cnccn2)cc1` (stereo unspecified), the cell number change is 9.87%. In addition, the half-maximal activity concentration (AC50) under setting [1] is 23.1 µM [rising, partial curve, poor fit].

As for `COc1ccc(-c2noc(Cc3ccccc3OC)n2)cc1`, the cell number change turned out to be 3.98%. Besides, under setting [1], the AC50 is 5.8 µM [rising, partial curve].

Regarding `CC(C)(C)N1C(=O)c2ccc(C(=O)Nc3ccc(O)cc3)cc2C1=O`, the cell number change is -38.4%. The AC50 under setting [2] was 16.4 µM [falling, single point].

Turning to `O=C(NCc1n[nH]c(=S)n1-c1ccc(Cl)c(Cl)c1)c1ccc(S(=O)(=O)N2CCOCC2)cc1`, the cell number change was found to be 17.4%.

In the case of `COC(=O)c1ccc(OC(C)C(=O)c2ccc(C)cc2)cc1` (stereo unspecified), the cell number change was -1.76%. Further, under setting [1], the AC50 is 6.51 µM [rising, single point].

Take `Cc1noc(C(=O)NCC2CCCO2)c1Cl` (stereo unspecified): the cell number change was found to be 0.895%. For the same compound, the AC50 under setting [2] is 7.31 µM [falling, single point].

Regarding `COc1ccc(-c2oc3ncnc(N)c3c2-c2ccccc2)cc1`, the AC50 is 1.64 µM [rising, partial curve] under setting [2] and 2.59 µM [rising, partial curve] under setting [1].

In the case of `O=C(c1cc2c(s1)CCCC2)N1CCN(C(=O)C2CCCO2)CC1` (stereo unspecified), under setting [1], the AC50 was 0.461 µM [falling, single point].
